Source: PubChem BioAssay AID743121 (NCATS, 2013)
The deposit covers about 26,000 reagents; this is a part drawn at random. 167 of them (0.63%) were called active. 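Calls are per gene from RSA p-values that are not deposited; an individual active-marked siRNA can sensitise only weakly.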 The numbers tell different reagents against one gene apart. Further read-outs or replicates are left out here. Reagent sequences are not shown.

Assay: 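Knock-downs that sensitise breast cancer cells to camptothecin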 (primary screen)
System: MDA-MB-231 cells, a human breast cancer line
Reagents: single siRNA against human genes, 20 nM siRNA (0.8 pmol per well)
Time to read-out: 120 h (drug added 48 h after transfection, read 72 h later)
Conditions: camptothecin 20 nM (about EC30) for 72 h; vehicle 0.1% DMSO in parallel plates
Detection: 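Cell viability by ATP luminescence (CellTiter-Glo) as % of non-targeting siRNA wells, and the log2 ratio of viability without drug over viability with camptothecin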
Scale: log2 vehicle/camptothecin viability: higher = stronger sensitisation to camptothecin
Call rule: 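Active genes have an RSA gene-level p-value below 0.001, computed from the ratios of their separate siRNAs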

| gene | reagent no. | log2 vehicle/camptothecin viability | Outcome |
| --- | --- | --- | --- |
| PRSS27 | 1 | 0.0523 | inactive |
| PRSS27 | 2 | 0.0306 | inactive |
| PRSS27 | 3 | 0.0346 | inactive |
| PRSS27 | 4 | -0.223 | inactive |
| MARVELD3 | 1 | -0.128 | inactive |
| MARVELD3 | 2 | -0.327 | inactive |
| MARVELD3 | 3 | -0.0835 | inactive |
| MARVELD3 | 4 | -1.02 | inactive |
| MARVELD3 | 5 | 0.146 | inactive |
| MARVELD3 | 6 | -0.216 | inactive |
| GSTCD | 1 | -0.306 | inactive |
| GSTCD | 2 | -0.14 | inactive |
| GSTCD | 3 | -0.261 | inactive |
| GSTCD | 4 | -0.222 | inactive |
| AQP5 | 1 | -0.36 | inactive |
| AQP5 | 2 | -0.368 | inactive |
| AQP5 | 3 | -0.386 | inactive |
| AMFR | 1 | -0.246 | inactive |
| AMFR | 2 | 0.365 | inactive |
| AMFR | 3 | 0.117 | inactive |
| AMFR | 4 | -0.116 | inactive |
| ANGPTL6 | 1 | 0.19 | inactive |
| ANGPTL6 | 2 | -0.0813 | inactive |
| ANGPTL6 | 3 | -0.119 | inactive |
| ANGPTL6 | 4 | 0.018 | inactive |

Targets above whose target name begins with G or g:
| gene | reagent no. | log2 vehicle/camptothecin viability | Outcome |
| --- | --- | --- | --- |
| GSTCD | 1 | -0.306 | inactive |
| GSTCD | 2 | -0.14 | inactive |
| GSTCD | 3 | -0.261 | inactive |
| GSTCD | 4 | -0.222 | inactive |

Next records follow.
| gene | reagent no. | log2 vehicle/camptothecin viability | Outcome |
| --- | --- | --- | --- |
| SLC10A2 | 1 | -0.164 | inactive |
| SLC10A2 | 2 | -0.236 | inactive |
| SLC10A2 | 3 | 0.00354 | inactive |
| SLC10A2 | 4 | -0.377 | inactive |
| TMX4 | 1 | -0.024 | inactive |
| TMX4 | 2 | 0.296 | inactive |
| TMX4 | 3 | -0.44 | inactive |
| TMX4 | 4 | 0.334 | inactive |
| ABCA9 | 1 | -0.0075 | inactive |
| ABCA9 | 2 | -0.241 | inactive |
| ABCA9 | 3 | -0.385 | inactive |
| ABCA9 | 4 | -0.291 | inactive |
| RGS8 | 1 | -0.125 | inactive |
| RGS8 | 2 | -0.301 | inactive |
| RGS8 | 3 | 0.0708 | inactive |
| RGS8 | 4 | -0.0447 | inactive |
| AQP8 | 1 | 0.334 | inactive |
| AQP8 | 2 | -0.102 | inactive |
| AQP8 | 3 | -0.269 | inactive |
| CDC45 | 1 | -0.044 | inactive |
| CDC45 | 2 | -0.43 | inactive |
| CDC45 | 3 | -0.28 | inactive |
| CDC45 | 4 | -0.243 | inactive |
| ASPA | 1 | 0.206 | inactive |
| ASPA | 2 | 0.00782 | inactive |
| ASPA | 3 | -0.267 | inactive |
| ASPA | 4 | -0.264 | inactive |
| TOP1P1 | 1 | -0.481 | inactive |
| TOP1P1 | 2 | 0.00251 | inactive |
| TOP1P1 | 3 | -0.255 | inactive |
| TOP1P1 | 4 | -0.00201 | inactive |
| SORD | 1 | -0.293 | inactive |
| SORD | 2 | -0.141 | inactive |
| SORD | 3 | -0.321 | inactive |
| SH2D1A | 1 | -0.123 | inactive |
| SH2D1A | 2 | 1.27 | inactive |
| SH2D1A | 3 | 0.176 | inactive |
| SH2D1A | 4 | 0.0232 | inactive |
| GPR160 | 1 | -0.01 | inactive |
| GPR160 | 2 | 0.114 | inactive |
| GPR160 | 3 | -0.0895 | inactive |
| AKAP11 | 1 | -0.196 | inactive |
| AKAP11 | 2 | -0.433 | inactive |
| AKAP11 | 3 | 0.139 | inactive |
| AKAP11 | 4 | -0.175 | inactive |
